This data set can be described thus: general procedure: solution-phase peptide synthesis; DCC. As to conditions: acetate.
Where [1] appears, read: late stage modification step, based on the starting methyl ester (II).

With “H-Tyr-D-Ala-Gly-Phe-Leu-Arg-Arg-N(CH3)2 acetate (AGFLRR; N-terminal Tyr-D-, C-terminal dimethylamide, acetate; printed: Ala-Gly-Phe-Leu-Arg-Arg-)”, the step yield under setting [1] worked out at 69%.

In turn, “H-Tyr-D-Ala-Gly-Phe-Leu-Arg-Arg-NHC2H5 acetate (AGFLRR; N-terminal Tyr-D-, C-terminal ethylamide, acetate; printed: Ala-Gly-Phe-Leu-Arg-Arg-)” yielded a step yield under setting [1] of 81%. Turning to “H-Tyr-D-Ala-Gly-Phe-Leu-Arg-Arg-NHC4H9 acetate (AGFLRR; N-terminal Tyr-D-, C-terminal butylamide, acetate; printed: Ala-Gly-Phe-Leu-Arg-Arg-)”, the step yield under setting [1] is given as 63%. On to “H-Tyr-D-Ala-Gly-Phe-Leu-Arg-Arg-NH2 acetate (AGFLRR; N-terminal Tyr-D-, C-terminal amide, acetate; printed: Ala-Gly-Phe-Leu-Arg-Arg-)”, for which, under setting [1], the step yield was determined as 74%. Take “Cbz-Tyr-D-Ala-Gly-Phe-Leu-Arg-Arg-OCH3 acetate”: the step yield entry (coupling step, based on the starting hexapeptide (IV)) was “about 65%”.

(Values after patent publication US20240199693A1 (priority 2021, published 2024).)
